Measurements from the supplement of paper PMC10849652.
This is one part of the list.

Amino acid sequences for entries named in this document (tags omitted). A change or cut given only in a name is not applied to a line headed by its entry.
UniProt Q8N4A0: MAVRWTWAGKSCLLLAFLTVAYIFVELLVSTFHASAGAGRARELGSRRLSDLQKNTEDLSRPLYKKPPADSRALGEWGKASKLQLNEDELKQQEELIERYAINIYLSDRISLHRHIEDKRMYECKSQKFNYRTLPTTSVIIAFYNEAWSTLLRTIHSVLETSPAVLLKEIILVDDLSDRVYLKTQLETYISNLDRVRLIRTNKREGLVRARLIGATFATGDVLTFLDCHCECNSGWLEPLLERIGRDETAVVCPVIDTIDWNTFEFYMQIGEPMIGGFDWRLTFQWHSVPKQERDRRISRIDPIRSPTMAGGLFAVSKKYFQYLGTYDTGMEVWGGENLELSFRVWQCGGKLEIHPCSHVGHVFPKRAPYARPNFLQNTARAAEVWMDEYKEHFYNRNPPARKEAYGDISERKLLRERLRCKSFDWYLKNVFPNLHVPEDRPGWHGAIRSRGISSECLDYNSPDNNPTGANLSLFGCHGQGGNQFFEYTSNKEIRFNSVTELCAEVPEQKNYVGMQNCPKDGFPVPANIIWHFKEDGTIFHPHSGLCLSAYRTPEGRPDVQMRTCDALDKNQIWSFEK
UniProt Q9BZ67: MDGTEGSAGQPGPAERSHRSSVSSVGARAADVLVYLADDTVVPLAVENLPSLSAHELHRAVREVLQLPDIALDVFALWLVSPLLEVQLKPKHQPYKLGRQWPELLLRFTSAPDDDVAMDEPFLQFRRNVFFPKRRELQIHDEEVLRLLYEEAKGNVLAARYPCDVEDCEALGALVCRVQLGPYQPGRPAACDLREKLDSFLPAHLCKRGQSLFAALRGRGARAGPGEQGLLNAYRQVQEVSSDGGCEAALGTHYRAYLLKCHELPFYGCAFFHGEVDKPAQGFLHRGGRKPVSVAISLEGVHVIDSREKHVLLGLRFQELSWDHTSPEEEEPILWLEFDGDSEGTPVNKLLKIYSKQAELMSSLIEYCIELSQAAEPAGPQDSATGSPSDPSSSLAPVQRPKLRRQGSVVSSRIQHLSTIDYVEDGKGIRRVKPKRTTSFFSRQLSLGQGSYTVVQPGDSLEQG
UniProt Q96NB1: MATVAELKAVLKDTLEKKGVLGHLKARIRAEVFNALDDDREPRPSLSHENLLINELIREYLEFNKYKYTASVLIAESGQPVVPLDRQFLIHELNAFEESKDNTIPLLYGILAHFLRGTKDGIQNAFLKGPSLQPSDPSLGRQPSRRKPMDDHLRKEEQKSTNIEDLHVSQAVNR
UniProt Q96CN9: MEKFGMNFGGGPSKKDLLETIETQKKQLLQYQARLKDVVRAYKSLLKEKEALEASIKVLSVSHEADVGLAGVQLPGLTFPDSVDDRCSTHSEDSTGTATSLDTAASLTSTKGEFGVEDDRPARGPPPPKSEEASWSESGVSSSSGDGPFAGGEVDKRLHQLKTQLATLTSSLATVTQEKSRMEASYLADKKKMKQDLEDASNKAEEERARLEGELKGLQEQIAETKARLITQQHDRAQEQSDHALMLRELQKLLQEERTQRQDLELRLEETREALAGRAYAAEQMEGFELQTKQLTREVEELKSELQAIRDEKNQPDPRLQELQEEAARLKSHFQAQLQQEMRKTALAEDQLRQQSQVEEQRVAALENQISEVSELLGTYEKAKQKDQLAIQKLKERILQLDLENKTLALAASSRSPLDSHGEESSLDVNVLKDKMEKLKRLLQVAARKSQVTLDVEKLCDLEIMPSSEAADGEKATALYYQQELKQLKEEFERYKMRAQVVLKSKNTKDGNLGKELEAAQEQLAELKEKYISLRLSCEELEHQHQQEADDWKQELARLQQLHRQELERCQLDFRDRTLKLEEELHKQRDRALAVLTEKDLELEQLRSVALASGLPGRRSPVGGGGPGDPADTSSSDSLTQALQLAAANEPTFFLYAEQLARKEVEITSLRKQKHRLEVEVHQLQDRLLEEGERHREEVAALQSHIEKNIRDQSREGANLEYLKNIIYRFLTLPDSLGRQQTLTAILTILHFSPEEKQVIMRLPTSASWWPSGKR
UniProt Q6P4F1: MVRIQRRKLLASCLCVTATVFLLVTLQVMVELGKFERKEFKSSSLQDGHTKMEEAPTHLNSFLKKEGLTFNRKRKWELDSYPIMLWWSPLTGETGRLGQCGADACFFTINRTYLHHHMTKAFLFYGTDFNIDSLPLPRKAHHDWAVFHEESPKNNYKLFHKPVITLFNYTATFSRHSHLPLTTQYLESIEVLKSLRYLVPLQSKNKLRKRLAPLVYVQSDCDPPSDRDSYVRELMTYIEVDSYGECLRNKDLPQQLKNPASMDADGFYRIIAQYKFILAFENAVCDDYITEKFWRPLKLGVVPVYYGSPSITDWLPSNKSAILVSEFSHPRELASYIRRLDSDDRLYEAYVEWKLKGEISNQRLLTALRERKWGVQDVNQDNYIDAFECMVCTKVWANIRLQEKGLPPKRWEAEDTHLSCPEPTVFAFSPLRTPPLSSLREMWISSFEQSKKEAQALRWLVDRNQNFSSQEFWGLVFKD
UniProt Q96DB9: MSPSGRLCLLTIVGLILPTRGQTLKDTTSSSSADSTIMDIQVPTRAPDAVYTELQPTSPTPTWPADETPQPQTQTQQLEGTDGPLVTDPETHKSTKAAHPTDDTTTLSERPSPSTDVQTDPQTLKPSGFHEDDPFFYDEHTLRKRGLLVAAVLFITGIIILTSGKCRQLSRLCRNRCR
UniProt Q9NXC2: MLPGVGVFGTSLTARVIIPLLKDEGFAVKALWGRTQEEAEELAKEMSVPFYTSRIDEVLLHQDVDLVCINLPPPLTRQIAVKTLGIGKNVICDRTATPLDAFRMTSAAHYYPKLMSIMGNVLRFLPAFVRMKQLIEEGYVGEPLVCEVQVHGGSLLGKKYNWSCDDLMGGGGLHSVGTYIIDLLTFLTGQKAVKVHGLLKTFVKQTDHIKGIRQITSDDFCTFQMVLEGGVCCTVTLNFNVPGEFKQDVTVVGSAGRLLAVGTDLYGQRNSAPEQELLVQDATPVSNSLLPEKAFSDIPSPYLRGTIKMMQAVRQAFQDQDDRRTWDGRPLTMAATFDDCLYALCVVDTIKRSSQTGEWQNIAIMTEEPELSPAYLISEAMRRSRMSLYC
UniProt Q6ZNW5: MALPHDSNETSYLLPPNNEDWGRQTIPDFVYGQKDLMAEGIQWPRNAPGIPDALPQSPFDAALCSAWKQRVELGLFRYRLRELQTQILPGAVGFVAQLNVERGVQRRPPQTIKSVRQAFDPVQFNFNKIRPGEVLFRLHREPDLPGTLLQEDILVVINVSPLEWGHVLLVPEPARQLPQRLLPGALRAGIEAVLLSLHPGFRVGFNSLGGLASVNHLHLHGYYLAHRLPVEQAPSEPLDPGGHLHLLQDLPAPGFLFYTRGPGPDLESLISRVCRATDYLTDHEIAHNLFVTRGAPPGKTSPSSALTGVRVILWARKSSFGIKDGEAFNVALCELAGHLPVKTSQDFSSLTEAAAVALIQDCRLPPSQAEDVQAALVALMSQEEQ
UniProt P01275: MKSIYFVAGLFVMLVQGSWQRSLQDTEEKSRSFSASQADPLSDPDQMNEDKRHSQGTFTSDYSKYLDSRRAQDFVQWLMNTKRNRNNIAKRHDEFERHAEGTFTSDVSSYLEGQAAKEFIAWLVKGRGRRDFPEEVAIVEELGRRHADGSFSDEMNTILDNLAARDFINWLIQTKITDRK
UniProt Q495W5: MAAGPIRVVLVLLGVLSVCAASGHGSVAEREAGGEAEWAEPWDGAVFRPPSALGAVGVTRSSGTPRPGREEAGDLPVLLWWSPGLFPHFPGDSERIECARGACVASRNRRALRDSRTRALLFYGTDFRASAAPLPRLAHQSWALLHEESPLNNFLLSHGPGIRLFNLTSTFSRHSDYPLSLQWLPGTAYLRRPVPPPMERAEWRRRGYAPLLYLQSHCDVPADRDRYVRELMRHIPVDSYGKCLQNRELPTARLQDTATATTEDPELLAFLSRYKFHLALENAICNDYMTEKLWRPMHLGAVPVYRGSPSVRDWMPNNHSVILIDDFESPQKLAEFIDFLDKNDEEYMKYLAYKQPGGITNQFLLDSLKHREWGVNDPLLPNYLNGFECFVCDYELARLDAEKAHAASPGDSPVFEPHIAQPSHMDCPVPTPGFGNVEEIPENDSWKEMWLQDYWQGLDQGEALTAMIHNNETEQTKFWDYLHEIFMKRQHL
UniProt Q14435: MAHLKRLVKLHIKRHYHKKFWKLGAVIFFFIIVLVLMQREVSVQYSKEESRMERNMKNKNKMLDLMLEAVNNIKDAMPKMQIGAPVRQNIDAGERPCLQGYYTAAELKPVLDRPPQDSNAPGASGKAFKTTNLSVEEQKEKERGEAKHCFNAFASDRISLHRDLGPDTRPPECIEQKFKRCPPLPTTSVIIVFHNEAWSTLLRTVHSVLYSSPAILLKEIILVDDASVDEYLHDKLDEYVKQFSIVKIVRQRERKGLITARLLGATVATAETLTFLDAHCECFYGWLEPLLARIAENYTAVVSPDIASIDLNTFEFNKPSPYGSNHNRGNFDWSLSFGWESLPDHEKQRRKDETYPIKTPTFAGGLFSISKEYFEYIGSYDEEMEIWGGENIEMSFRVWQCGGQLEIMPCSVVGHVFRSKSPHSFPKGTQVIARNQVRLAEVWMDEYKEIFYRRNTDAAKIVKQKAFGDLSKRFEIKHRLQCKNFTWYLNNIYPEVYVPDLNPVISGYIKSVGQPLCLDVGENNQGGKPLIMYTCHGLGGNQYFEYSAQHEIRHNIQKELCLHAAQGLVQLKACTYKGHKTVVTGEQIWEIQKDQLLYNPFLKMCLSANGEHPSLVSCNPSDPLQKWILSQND
UniProt Q13467, whole entry, looked up: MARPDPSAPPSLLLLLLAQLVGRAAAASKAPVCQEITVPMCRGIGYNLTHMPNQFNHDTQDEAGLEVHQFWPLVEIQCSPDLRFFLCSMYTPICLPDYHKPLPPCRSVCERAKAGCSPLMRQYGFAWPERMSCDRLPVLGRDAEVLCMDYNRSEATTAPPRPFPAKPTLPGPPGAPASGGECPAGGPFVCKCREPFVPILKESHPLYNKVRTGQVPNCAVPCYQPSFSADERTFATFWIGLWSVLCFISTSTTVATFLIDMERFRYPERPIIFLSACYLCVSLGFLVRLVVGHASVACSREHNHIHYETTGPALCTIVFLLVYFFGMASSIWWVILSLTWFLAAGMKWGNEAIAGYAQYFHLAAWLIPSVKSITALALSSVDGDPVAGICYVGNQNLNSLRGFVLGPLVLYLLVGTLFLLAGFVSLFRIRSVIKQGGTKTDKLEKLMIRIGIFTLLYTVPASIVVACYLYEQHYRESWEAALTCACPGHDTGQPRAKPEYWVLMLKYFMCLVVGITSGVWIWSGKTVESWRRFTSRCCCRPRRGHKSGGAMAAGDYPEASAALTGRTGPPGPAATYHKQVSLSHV
UniProt Q9UP38, whole entry, looked up: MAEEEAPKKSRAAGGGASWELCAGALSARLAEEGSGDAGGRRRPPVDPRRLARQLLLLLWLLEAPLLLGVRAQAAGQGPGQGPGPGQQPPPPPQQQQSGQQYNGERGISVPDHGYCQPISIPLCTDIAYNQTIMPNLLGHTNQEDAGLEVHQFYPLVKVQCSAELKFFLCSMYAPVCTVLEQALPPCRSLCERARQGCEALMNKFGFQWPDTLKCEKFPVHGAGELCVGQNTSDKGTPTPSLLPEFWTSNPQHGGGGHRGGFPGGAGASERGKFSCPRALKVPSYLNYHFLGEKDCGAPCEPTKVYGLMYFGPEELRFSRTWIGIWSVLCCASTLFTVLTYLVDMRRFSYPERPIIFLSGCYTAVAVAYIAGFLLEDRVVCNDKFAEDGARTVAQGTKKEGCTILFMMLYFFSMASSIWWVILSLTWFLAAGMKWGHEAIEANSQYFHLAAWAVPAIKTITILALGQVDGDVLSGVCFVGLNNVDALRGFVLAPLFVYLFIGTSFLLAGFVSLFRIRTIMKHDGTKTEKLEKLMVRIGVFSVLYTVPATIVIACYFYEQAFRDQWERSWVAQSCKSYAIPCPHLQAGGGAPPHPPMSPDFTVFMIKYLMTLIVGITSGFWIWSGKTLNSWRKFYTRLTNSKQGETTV
UniProt Q9P0K8: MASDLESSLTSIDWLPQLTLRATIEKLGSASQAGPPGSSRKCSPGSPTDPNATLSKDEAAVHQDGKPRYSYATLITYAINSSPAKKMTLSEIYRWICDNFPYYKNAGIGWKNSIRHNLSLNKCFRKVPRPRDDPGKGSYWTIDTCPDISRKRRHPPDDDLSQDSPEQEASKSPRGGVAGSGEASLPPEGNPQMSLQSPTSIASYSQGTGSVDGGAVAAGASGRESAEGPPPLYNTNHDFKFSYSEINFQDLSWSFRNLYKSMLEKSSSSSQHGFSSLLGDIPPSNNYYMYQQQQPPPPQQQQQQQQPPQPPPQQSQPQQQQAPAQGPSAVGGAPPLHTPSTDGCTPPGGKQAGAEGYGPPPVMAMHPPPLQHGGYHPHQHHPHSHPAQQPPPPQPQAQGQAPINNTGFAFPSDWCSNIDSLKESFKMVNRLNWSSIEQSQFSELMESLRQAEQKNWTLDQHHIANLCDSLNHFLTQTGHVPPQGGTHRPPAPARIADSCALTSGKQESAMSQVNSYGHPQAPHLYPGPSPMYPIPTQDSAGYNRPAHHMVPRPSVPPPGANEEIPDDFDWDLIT

Columns and labels:
Assay in all cases: log2 fold change, soluble protein after heating vs DMSO (PISA); higher = thermal stabilisation; K562 cells, 10 uM, 30 min; active = over 0.2 and 3.5 SD of the protein, either way, in both replicates (recomputed)
[1] = compound: CC[C@@H]1C(=O)N(C)c2cnc(Nc3ccc(C(=O)NC4CCN(C)CC4)cc3OC)nc2N1C1CCCC1
How it was run: (§1)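 Quantification of soluble protein used TMTpro 16plex LC-MS/MS, with channel sums equalised. Samples were the supernatant after 21,000xg for 90 min of pooled aliquots from K562 cells (2×10^6 cells/mL) treated with 10 μM compound for 30 min, heated for 3 min over 48°C-58°C, and extracted in PBS with 0.5% NP-40 at 4°C. Values, from duplicates, describe thermal stability against control samples on a log2 fold-change scale.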

epoxomicin = compound: CC[C@H](C)[C@@H](C(=O)N[C@@H]([C@@H](C)O)C(=O)N[C@@H](CC(C)C)C(=O)[C@]1(CO1)C)NC(=O)[C@H]([C@@H](C)CC)N(C)C(=O)C [epoxomicin]
How it was run: as §1

rosiglitazone = compound: CN(CCOC1=CC=C(C=C1)C[C@H]2C(=O)NC(=O)S2)C3=CC=CC=N3 (racemic) [rosiglitazone]
How it was run: as §1

[2] = compound: CCn1cc(-c2ccnc3[nH]c(-c4cccc(CN(C)C)c4)cc23)c(-c2ccc(NC(=O)N(C)C)cc2)n1
How it was run: as §1

[3] = compound: CN1CCC(CNc2ccc3ncc(-c4cccc(OC(F)(F)F)c4)n3n2)CC1
How it was run: as §1

volasertib = compound: CC[C@@H]1C(=O)N(C)c2cnc(Nc3ccc(C(=O)N[C@H]4CC[C@H](N5CCN(CC6CC6)CC5)CC4)cc3OC)nc2N1C(C)C [volasertib]
How it was run: as §1

[4] = compound: CC[C@H](C)N1C=C(C2=C(C=C(C=C21)C3=CN=C(C=C3)N4CCNCC4)C(=O)NCC5=C(C=C(NC5=O)C)C)C
How it was run: as §1

[5] = compound: CN(C)CC(=O)Nc1ccc2[nH]c(=O)c3ccccc3c2c1
How it was run: as §1

[6] = compound: CN1C2=C(C3=C1C(=O)N(N=C3)CC4=CC(=CC=C4)N)SC(=C2)S(=O)C
How it was run: as §1

[7] = compound: CCn1c(C(=O)N(C2CC2)C2CC2)cc2c3c(ncn3C)c(Nc3cc(C)n(C)n3)nc21
How it was run: as §1

Target: GDPD5 (UniProt Q8WTR4)
- log2 fold change [1]: inactive: -0.103
- log2 fold change (epoxomicin): inactive: 0.046
- log2 fold change (rosiglitazone): inactive: 0.044

Target: GFAP isoform 2 (UniProt P14136)
- log2 fold change [1]: inactive: -0.02
- log2 fold change [2]: inactive: -0.798
- log2 fold change [3]: inactive: 0.088

Target: GGA2 (UniProt Q9UJY4)
- log2 fold change [1]: inactive: 0.022
- log2 fold change (volasertib): inactive: 0.059
- log2 fold change [4]: inactive: 0.038
- log2 fold change (epoxomicin): inactive: -0.033
- log2 fold change [5]: inactive: -0.021
- log2 fold change [6]: inactive: -0.02

Target: FUT8 (UniProt Q9BYC5)
- log2 fold change [1]: active: -0.327
- log2 fold change [4]: inactive: -0.042
- log2 fold change (epoxomicin): inactive: 0.002
- log2 fold change [2]: inactive: 0.06
- log2 fold change [5]: inactive: 0.175
- log2 fold change [6]: inactive: -0.04
- log2 fold change [3]: inactive: -0.057

Target: GATAD2B (UniProt Q8WXI9)
- log2 fold change [1]: inactive: -0.023
- log2 fold change (volasertib): inactive: -0.117
- log2 fold change (epoxomicin): inactive: 0.104
- log2 fold change [7]: inactive: 0.005
- log2 fold change [5]: inactive: 0

Target: GALNT4 (UniProt Q8N4A0)
- log2 fold change [1]: inactive: -0.062
- log2 fold change (volasertib): active: -0.334
- log2 fold change [4]: inactive: -0.032
- log2 fold change (epoxomicin): inactive: -0.041
- log2 fold change [2]: inactive: -0.031
- log2 fold change [5]: inactive: 0.007
- log2 fold change [6]: inactive: -0.007
- log2 fold change [3]: active: -0.367

Target: FRA10AC1 isoform 3 (UniProt Q70Z53)
- log2 fold change [1]: inactive: -0.086
- log2 fold change (volasertib): active: -0.613
- log2 fold change [4]: inactive: -0.034
- log2 fold change (epoxomicin): inactive: 0.041
- log2 fold change [2]: inactive: 0.025
- log2 fold change [5]: inactive: -0.013
- log2 fold change [6]: inactive: 0.093
- log2 fold change [3]: inactive: 0.057

Target: FRMD8 (UniProt Q9BZ67)
- log2 fold change [1]: inactive: -0.135
- log2 fold change [4]: inactive: 0.126
- log2 fold change (epoxomicin): inactive: 0.076

Target: GDPD1 (UniProt Q8N9F7)
- log2 fold change [1]: inactive: 0.069
- log2 fold change (volasertib): inactive: 0.049
- log2 fold change [4]: inactive: -0.019
- log2 fold change (epoxomicin): inactive: 0.017
- log2 fold change [2]: inactive: -0.188
- log2 fold change [5]: inactive: 0.004
- log2 fold change [6]: inactive: -0.132
- log2 fold change [3]: inactive: 0.092

Target: GAA (UniProt P10253)
- log2 fold change [1]: inactive: -0.129
- log2 fold change (epoxomicin): inactive: -0.013
- log2 fold change [7]: inactive: -0.377
- log2 fold change [2]: inactive: 0.013
- log2 fold change [5]: inactive: 0.105
- log2 fold change [3]: inactive: -0.073

Target: GALNT12 (UniProt Q8IXK2)
- log2 fold change [1]: inactive: 0.001
- log2 fold change (volasertib): inactive: -0.38
- log2 fold change (epoxomicin): inactive: 0.014
- log2 fold change [7]: inactive: -0.026
- log2 fold change [2]: inactive: 0.051
- log2 fold change [5]: inactive: -0.041
- log2 fold change (rosiglitazone): inactive: 0.051
- log2 fold change [6]: inactive: 0.063
- log2 fold change [3]: inactive: 0.024

Target: GABPB1 (UniProt Q06547)
- log2 fold change (volasertib): inactive: -0.053
- log2 fold change [7]: inactive: -0.011
- log2 fold change [5]: inactive: 0.049
- log2 fold change (rosiglitazone): inactive: 0.014

Target: GFM2 (UniProt Q969S9)
- log2 fold change [1]: inactive: 0.04
- log2 fold change (rosiglitazone): inactive: -0.018

Target: FOPNL (UniProt Q96NB1)
- log2 fold change (volasertib): inactive: 0.095
- log2 fold change [4]: inactive: 0.269
- log2 fold change (epoxomicin): inactive: -0.154
- log2 fold change [7]: inactive: -0.033
- log2 fold change [2]: inactive: 0.118
- log2 fold change [5]: inactive: 0.015
- log2 fold change (rosiglitazone): inactive: 0.007
- log2 fold change [6]: inactive: -0.025
- log2 fold change [3]: inactive: 0.032

Target: GAPDH isoform 2 (UniProt P04406)
- log2 fold change [7]: inactive: -0.101

Target: GALNT10 (UniProt Q86SR1)
- log2 fold change (volasertib): inactive: -0.072
- log2 fold change [4]: inactive: -0.028
- log2 fold change (epoxomicin): inactive: 0.008
- log2 fold change [2]: inactive: 0.058
- log2 fold change (rosiglitazone): inactive: 0.134
- log2 fold change [6]: inactive: -0.099
- log2 fold change [3]: inactive: 0.188

Target: GAL (UniProt P22466)
- log2 fold change [7]: inactive: 0.034
- log2 fold change [5]: inactive: 0.042
- log2 fold change (rosiglitazone): inactive: -0.068

Target: GCC1 (UniProt Q96CN9)
- log2 fold change [4]: inactive: -0.016
- log2 fold change (epoxomicin): inactive: -0.329
- log2 fold change [7]: inactive: 0.03
- log2 fold change [2]: inactive: 0.176
- log2 fold change [3]: inactive: -0.121

Target: FUNDC1 (UniProt Q8IVP5)
- log2 fold change (volasertib): inactive: 0.078

Target: FTSJ3 (UniProt Q8IY81)
- log2 fold change (volasertib): inactive: 0.067
- log2 fold change [7]: inactive: -0.119
- log2 fold change [2]: inactive: -0.312
- log2 fold change [6]: inactive: 0.128
- log2 fold change [3]: inactive: 0.154

Target: FUT10 isoform 2 (UniProt Q6P4F1)
- log2 fold change (epoxomicin): inactive: 0.012
- log2 fold change [2]: inactive: -0.053
- log2 fold change [3]: inactive: -0.042

Target: GATB (UniProt O75879)
- log2 fold change (volasertib): inactive: -0.56
- log2 fold change [4]: inactive: 0.112
- log2 fold change (epoxomicin): inactive: 0.149
- log2 fold change [7]: inactive: -0.213
- log2 fold change [2]: inactive: -0.056
- log2 fold change [5]: inactive: 0.116
- log2 fold change [6]: inactive: 0.053
- log2 fold change [3]: inactive: -0.455

Target: GDI2 (UniProt Q5SX86)
- log2 fold change (epoxomicin): inactive: -0.069
- log2 fold change [7]: inactive: 0.14
- log2 fold change (rosiglitazone): inactive: 0.223

Target: FXYD5 (UniProt Q96DB9)
- log2 fold change (volasertib): inactive: -0.129
- log2 fold change [2]: inactive: 0.216
- log2 fold change [5]: inactive: -0.062
- log2 fold change [6]: inactive: -0.007
- log2 fold change [3]: inactive: -0.08

Target: GFOD1 (UniProt Q9NXC2)
- log2 fold change (volasertib): inactive: 0.075
- log2 fold change (epoxomicin): inactive: -0.008
- log2 fold change [7]: inactive: -0.114
- log2 fold change [2]: inactive: -0.003
- log2 fold change [3]: inactive: 0.127

Target: GCFC2 isoform 3 (UniProt P16383)
- log2 fold change (volasertib): inactive: 0.196
- log2 fold change [7]: inactive: -0.11
- log2 fold change [5]: inactive: -0.015
- log2 fold change [6]: inactive: -0.054

Target: GABPB1 isoform 3 (UniProt Q06547)
- log2 fold change (volasertib): inactive: -0.285
- log2 fold change [2]: inactive: 0.045
- log2 fold change [5]: inactive: 0.013
- log2 fold change (rosiglitazone): inactive: 0.064
- log2 fold change [6]: inactive: -0.032
- log2 fold change [3]: inactive: 0.054

Target: GDPGP1 (UniProt Q6ZNW5)
- log2 fold change (volasertib): inactive: 0.031
- log2 fold change [4]: inactive: 0.095
- log2 fold change [7]: inactive: -0.124
- log2 fold change [6]: inactive: -0.034

Target: FRYL isoform 2 (UniProt O94915)
- log2 fold change (volasertib): inactive: -0.139
- log2 fold change (epoxomicin): inactive: 0.083
- log2 fold change [5]: inactive: 0.115

Target: GCG (UniProt P01275)
- log2 fold change [6]: inactive: 1.36

Target: GANC (UniProt Q8TET4)
- log2 fold change [4]: inactive: 0.077

Target: FUT11 (UniProt Q495W5)
- log2 fold change (volasertib): inactive: 0.192
- log2 fold change [4]: inactive: -0.174
- log2 fold change (epoxomicin): inactive: -0.01
- log2 fold change [7]: inactive: -0.068
- log2 fold change [2]: inactive: -0.108
- log2 fold change [5]: inactive: -0.13
- log2 fold change (rosiglitazone): inactive: 0.062
- log2 fold change [6]: inactive: 0.064
- log2 fold change [3]: inactive: 0.089

Target: GFOD2 (UniProt Q3B7J2)
- log2 fold change (epoxomicin): inactive: 0.015

Target: GALNT3 (UniProt Q14435)
- log2 fold change [7]: inactive: 0.146
- log2 fold change [2]: inactive: 0.035
- log2 fold change [3]: inactive: 0.128

Target: GALNT6 (UniProt Q8NCL4)
- log2 fold change (volasertib): inactive: -0.045
- log2 fold change [4]: inactive: 0.116
- log2 fold change (epoxomicin): inactive: 0.031
- log2 fold change [7]: inactive: -0.145
- log2 fold change (rosiglitazone): inactive: -0.13
- log2 fold change [6]: inactive: -0.506

Target: FPGS (UniProt Q05932)
- log2 fold change (volasertib): inactive: -0.244
- log2 fold change (epoxomicin): inactive: -0.19
- log2 fold change [7]: inactive: -0.032
- log2 fold change [2]: inactive: -0.056
- log2 fold change [5]: inactive: 0.038
- log2 fold change (rosiglitazone): inactive: 0.141
- log2 fold change [6]: inactive: -0.032
- log2 fold change [3]: inactive: 0.039

Target: FZD5 (UniProt Q13467)
- log2 fold change (volasertib): inactive: 0.277
- log2 fold change (epoxomicin): inactive: -0.091
- log2 fold change [7]: inactive: -0.132
- log2 fold change (rosiglitazone): inactive: 0.075

Target: FZD1 (UniProt Q9UP38)
- log2 fold change [4]: inactive: 0.122
- log2 fold change (epoxomicin): inactive: 0.125
- log2 fold change [7]: inactive: -0.018
- log2 fold change [5]: inactive: -0.157
- log2 fold change (rosiglitazone): inactive: 0.119

Target: GGT1 (UniProt P19440)
- log2 fold change (volasertib): inactive: 0.017
- log2 fold change (epoxomicin): inactive: -0.032
- log2 fold change [7]: inactive: -0.013
- log2 fold change [2]: inactive: 0.134
- log2 fold change (rosiglitazone): inactive: 0.086
- log2 fold change [6]: inactive: -0.155
- log2 fold change [3]: inactive: -0.086

Target: GDPD3 (UniProt Q7L5L3)
- log2 fold change (volasertib): inactive: 0.031
- log2 fold change (epoxomicin): inactive: -0.048
- log2 fold change [7]: inactive: -0.1
- log2 fold change [2]: inactive: -0.081
- log2 fold change [5]: inactive: 0.027
- log2 fold change [3]: inactive: 0.054

Target: FTSJ1 isoform 2 (UniProt Q9UET6)
- log2 fold change [7]: inactive: -0.082

Target: FUT1 (UniProt P19526)
- log2 fold change (epoxomicin): inactive: 0.155

Target: FOXJ2 (UniProt Q9P0K8)
- log2 fold change [5]: inactive: -0.077

Target: GEMIN7 (UniProt Q9H840)
- log2 fold change (epoxomicin): inactive: 0.098
- log2 fold change [7]: inactive: -0.089
- log2 fold change [2]: inactive: 0.022
- log2 fold change [3]: inactive: 0.339
